## Primary screen of a compound library

Values are the deposited “Percent Effect”, in %.
The controls that fix the scale are not given in the record; negative values are as filed.
This is an unselected part of the compounds tested.
Two or more numbers in one place are separate tests of the same structure; such repeats can differ widely.
A dash means the value is not listed here; it may have been measured.

T. brucei: 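Whole-parasite assay of Trypanosoma brucei over 72 hours; the read-out is not stated. Tested at 30 µM. The record gives no direction; compounds that gave an IC50 in retests scored well above the rest, so higher reads as stronger inhibition. Values scatter widely below zero; nearly all retest evidence comes from the higher of the two concentrations used. About 64,000 compounds were tested under these conditions; 1.5% (about 940) showed 50% or more at least once.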
Toxoplasma: 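Assay of Toxoplasma gondii numbers, read through their beta-galactosidase reporter with a colour substrate. Concentration: 10 µM. The record gives no direction; the compounds picked for IC50 retests had high values, so higher reads as fewer parasites. About 67,000 compounds were tested under these conditions; 0.38% (about 260) showed 50% or more at least once.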
Leishmania in macrophages: 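Cell assay of Leishmania donovani living inside macrophages; the read-out is not stated. Compounds at 30 µM. Direction is inferred from retests: higher values go with stronger inhibition. Size under these conditions: about 69,000 compounds, about 1,000 of them at 50% or above in at least one test.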

| compound | T. brucei | Toxoplasma | Leishmania in macrophages |
|---|---|---|---|
| `CS(=O)(=O)N1CCCCC12CCN(c1nncs1)CC2` | -8.581 | 5.739 | 18.58 |
| `[H][C@@]12CCN(Cc3scnc3C)C[C@]1(C(=O)N1CCCC1)CCO2` | -16.81 | 2.032 | 15.73 and 1.916 |
| `Cc1ccc(-c2noc(CN3CCOC(Cn4cccn4)C3)n2)cc1` (centres unmarked) | 13.15 | -4.77 | 35.38 |
| `Cc1cccc(CCC(=O)N2CCOCC2c2c(C)n[nH]c2C)c1` (centres unmarked) | -10.85 | 0.8758 | -42.06 |
| `COCc1cccc(CNCc2c(C)nn(C)c2N2CCOCC2)c1` | - | 12.32 | 29.6 |
| `N#Cc1nccnc1N1CCN(CCOCc2ccccc2)CC1` | -30.49 | -13.35 | -10.51 |
| `O=C(CCCc1cn[nH]c1)N1C[C@@H](CN2CCCC2)C[C@H](CO)C1` | 8.443 | 2.478 | 28.24 |
| `CN(C)S(=O)(=O)c1ccc(-c2nc(C#N)c(NC3CCCCC3)o2)o1` | -26.33 | 3.806 | 54.54 |
| `Cn1cc(CN2CCC(F)(F)C3(CCN(c4cccc(F)c4)C3)C2)cn1` (centres unmarked) | 99.39 | 35.59 | 2.905 |
| `CCOC(=O)C1CCN(c2cc(C(=O)N3CCCCC3)nc(C)n2)CC1` | -16.43 | 8.526 | -4.597 |
| `Cc1nc(N(C)C)nc2c1COCC21CCN(C(=O)NC(C)C)C1` (centres unmarked) | 14.91 | -1.151 | 25.08 |
| `CN1CCCC2(C1)CN(C(=O)C1CCCCC1)CCO2` (centres unmarked) | -6.655 | -30.19 | 7.045 |
| `CN(C)[C@H]1CCCCN(C(=O)CCc2csc(N)n2)C1` | 30.34 | -7.047 | -4.619 |
| `[H][C@@]12C[C@H](C(=O)NC3CCC3)[C@@]([H])(CN(c3ncc(CC)cn3)C1)O2` | 13.18 | 7.02 | -0.8094 |
| `O=C(Cc1ccc(-n2cccn2)cc1)N1CCN2CCCCC2C1` (centres unmarked) | 56.58 | -7.213 | -5.144 |
| `c1cnn(CC2CN(Cc3nc(C4CC4)no3)CCO2)c1` (centres unmarked) | -6.751 | -19.84 | -19.63 |
| `CC(C)c1cc(C(=O)N2CCc3ccccc3C2C(=O)O)n(C)n1` (centres unmarked) | -17.98 | -3.683 | -11.04 |
| `NC1CCCc2nc(-c3ccccc3)ncc21` (centres unmarked) | -26.27 | -3.246 | 14.71 |
| `COc1ccc(C2CC(=O)Oc3cc(C)[nH]c(=O)c32)cc1` (centres unmarked) | 35.02 | 19.37 | -4.044 |
| `COCCN(C/C=C/c1ccccc1)Cc1[nH]cnc1C` | 2.722 | 17.07 | 22.75 |
| `O=C(C1CCC1)N1CCC2(CC1)CNCCO2` | -50.94 | -1.543 | 0.0823 |
| `[H][C@]12CN(C(=O)CCc3ccsc3)CC[C@@]1(O)CCN(C(=O)COC)C2` | -19.53 | 2.643 | 35.1 |
| `OCC1CCCCN1c1ccc(-c2nc(-c3ccccc3F)no2)cn1` (centres unmarked) | 14.82 | -0.1838 | 23.77 |
| `Cc1cc(-c2cnc(N3CCCCCC3)nc2-c2cccnc2C)on1` | 55.42 | -16.18 | -18.93 |
| `CNc1nc2c(s1)C(=O)CN(C(=O)NCc1ccccc1)C2` | -14.78 | 3.011 | -25.72 |
| `CCS(=O)(=O)N1CCc2cc(C(=O)NC)c(N(C)C)nc2CC1` | -82.05 | -5.972 | 16.56 |
| `Cc1ccc(C(NC(=O)Cc2nc3ncccn3n2)C2CC2)cc1` (centres unmarked) | 7.933 | -0.4802 | 18.71 |
| `CCc1nc(NC(=O)NCCc2cccc(C)n2)nn1C` | 9.37 | -1.644 | 6.946 |
| `Cc1nc(CN2CCN(c3ncnc4ccccc34)CC2)no1` | -20.95 | -1.202 | 19.7 |
| `Cc1ccc(CN2CCc3nnc(CN4CCCC4=O)n3CC2)o1.O=C(O)C(F)(F)F` | 11.51 | -26.74 | 31.33 |
| `[H][C@@]12COC[C@@H](CC(=O)NCCOC)[C@]1([H])CN(C(=O)c1cnccn1)C2` | -23.64 | 18.05 | 9.909 |
| `Cc1ncsc1CCN(C)C(=O)CN1CCCCC1=O` | -9.598 | 3.693 | -10.84 |
| `CCCc1nnc(N2CC[C@](C)(O)[C@H](C)C2)s1` | -1.614 | -11.49 | 39.12 |
| `Cc1cc(C(=O)N2CCc3ncc(CN4CCCC4)n3CC2)no1.O=C(O)C(F)(F)F` | -34.42 | 19.68 | 13.57 |
| `NC(=O)c1cn[nH]c1NC(=O)c1ccc2c(c1)OCO2` | -16.9 | -8.063 | -2.793 |
| `CCC(CC(=O)Nc1ccc2c(c1)CC(=O)N2)c1ccccc1` (centres unmarked) | 6.029 | 2.041 | 15.21 |
| `COC(=O)c1cccc(NC(=O)CCn2nc(-c3cccs3)oc2=O)c1` | -43.22 | 1.4 | -13 |
| `CNC(=O)COC1COC2(CCN(c3cnccn3)CC2)C1.O=C(O)C(F)(F)F` (centres unmarked) | -25.78 | 9.953 | 23.06 and 3.995 |

Repeated from the top, 3 entries:

* CS(=O)(=O)N1CCCCC12CCN(c1nncs1)CC2 | T. brucei: -8.581%; Toxoplasma: 5.739%; Leishmania in macrophages: 18.58%
* [H][C@@]12CCN(Cc3scnc3C)C[C@]1(C(=O)N1CCCC1)CCO2 | T. brucei: -16.81%; Toxoplasma: 2.032%; Leishmania in macrophages: 15.73% and 1.916%
* Cc1ccc(-c2noc(CN3CCOC(Cn4cccn4)C3)n2)cc1 (centres unmarked) | T. brucei: 13.15%; Toxoplasma: -4.77%; Leishmania in macrophages: 35.38%

Source: ChEMBL document CHEMBL3988442, “University of Dundee, Small-Polar-MMV Screening Library” (2021).